PubChem BioAssay AID1259425 | University of Nebraska Medical Center | 2018

Screen: 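Find knockdowns that reproduce the gene expression pattern seen when KSR1 is lost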 (primary screen)
Cells: HCT116 human colon cancer cells
Knock-down reagent: siRNA pool against human genes, 50 nM siRNA
Measurement: 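After 50 nM siRNA pool, branched-DNA assay measures six marker transcripts per well, minus blank, normalised to the geometric mean of two housekeeping transcripts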
Direction: BNIP3L mRNA: higher = more BNIP3L transcript after knockdown
In all, the deposit lists about 14,000 reagents; below is an unselected part. The numbers tell different reagents against one gene apart. Not all columns of the deposit are shown. Not stated in the record: the time to read-out.

ALX1 (GeneID 8092)
- BNIP3L mRNA, set 1: 0.0484

CNIH1 (GeneID 10175)
- BNIP3L mRNA, set 1: 0.118

MICAL2 (GeneID 9645) #1
- BNIP3L mRNA, set 1: 0.155

MICAL2 (GeneID 9645) #2
- BNIP3L mRNA, set 1: 0.139

HTATIP2 (GeneID 10553)
- BNIP3L mRNA, set 1: 0.201

Looked up above.
For “BNIP3L mRNA, set 1”, ALX1 (GeneID 8092) is entered as 0.0484
MICAL2 (GeneID 9645) #2, BNIP3L mRNA, set 1 → 0.139

More reagents follow.
ARHGAP21 (GeneID 57584)
- BNIP3L mRNA, set 1: 0.057

FLT4 (GeneID 2324)
- BNIP3L mRNA, set 1: 0.229

HMGA1 (GeneID 3159)
- BNIP3L mRNA, set 1: 0.121

WASF3 (GeneID 10810)
- BNIP3L mRNA, set 1: 0.0575

GAB3 (GeneID 139716)
- BNIP3L mRNA, set 1: 0.0939

AK7 (GeneID 122481)
- BNIP3L mRNA, set 1: 0.0774

AANAT (GeneID 15)
- BNIP3L mRNA, set 1: 0.165
